2 substances from article PMC5839696 can be followed below.

The chains behind the UniProt entries cited, without tags or fusion partners. Where a name states a change or a piece, a line headed by the entry shows the natural chain unless it says otherwise. A line that says so, or that is headed by a name, gives the form on record, which may keep a tag or linker.
Flag-ADGRG2 (ADGRG2 full-length, ADGRG2FL) (Q8CJ12, form named): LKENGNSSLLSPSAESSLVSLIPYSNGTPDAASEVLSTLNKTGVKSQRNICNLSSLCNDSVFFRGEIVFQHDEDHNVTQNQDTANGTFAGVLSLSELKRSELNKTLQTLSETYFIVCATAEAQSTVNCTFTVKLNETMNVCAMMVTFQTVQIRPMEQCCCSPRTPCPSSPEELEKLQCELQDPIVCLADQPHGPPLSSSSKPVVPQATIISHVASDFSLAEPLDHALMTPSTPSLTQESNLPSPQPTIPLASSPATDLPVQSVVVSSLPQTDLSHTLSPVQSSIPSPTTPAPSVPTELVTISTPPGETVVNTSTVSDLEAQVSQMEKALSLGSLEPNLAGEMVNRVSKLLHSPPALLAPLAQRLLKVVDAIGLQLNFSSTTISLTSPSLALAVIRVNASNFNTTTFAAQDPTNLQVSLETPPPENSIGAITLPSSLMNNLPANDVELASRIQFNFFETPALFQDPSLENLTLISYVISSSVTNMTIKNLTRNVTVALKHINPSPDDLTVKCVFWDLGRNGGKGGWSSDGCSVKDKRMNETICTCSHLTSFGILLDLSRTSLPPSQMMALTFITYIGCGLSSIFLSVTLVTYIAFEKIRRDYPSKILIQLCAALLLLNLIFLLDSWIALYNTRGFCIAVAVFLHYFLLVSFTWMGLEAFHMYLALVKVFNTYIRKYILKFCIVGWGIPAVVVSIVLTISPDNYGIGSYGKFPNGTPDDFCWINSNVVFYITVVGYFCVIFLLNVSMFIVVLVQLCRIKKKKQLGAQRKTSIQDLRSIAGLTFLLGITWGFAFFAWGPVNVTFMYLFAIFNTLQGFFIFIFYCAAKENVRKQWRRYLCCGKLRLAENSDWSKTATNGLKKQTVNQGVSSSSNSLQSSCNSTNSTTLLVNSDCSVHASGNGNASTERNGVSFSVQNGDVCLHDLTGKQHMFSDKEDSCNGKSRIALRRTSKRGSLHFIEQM
UniProt P21279: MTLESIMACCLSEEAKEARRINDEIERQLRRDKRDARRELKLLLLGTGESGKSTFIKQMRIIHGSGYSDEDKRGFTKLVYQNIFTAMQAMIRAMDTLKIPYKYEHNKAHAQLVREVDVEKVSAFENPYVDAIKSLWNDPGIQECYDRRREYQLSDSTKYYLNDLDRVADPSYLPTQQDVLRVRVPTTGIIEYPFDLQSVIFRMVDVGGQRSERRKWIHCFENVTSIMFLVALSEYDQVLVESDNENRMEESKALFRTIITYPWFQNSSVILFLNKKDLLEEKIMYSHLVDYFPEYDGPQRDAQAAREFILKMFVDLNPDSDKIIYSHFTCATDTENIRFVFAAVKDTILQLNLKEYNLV
UniProt P49407: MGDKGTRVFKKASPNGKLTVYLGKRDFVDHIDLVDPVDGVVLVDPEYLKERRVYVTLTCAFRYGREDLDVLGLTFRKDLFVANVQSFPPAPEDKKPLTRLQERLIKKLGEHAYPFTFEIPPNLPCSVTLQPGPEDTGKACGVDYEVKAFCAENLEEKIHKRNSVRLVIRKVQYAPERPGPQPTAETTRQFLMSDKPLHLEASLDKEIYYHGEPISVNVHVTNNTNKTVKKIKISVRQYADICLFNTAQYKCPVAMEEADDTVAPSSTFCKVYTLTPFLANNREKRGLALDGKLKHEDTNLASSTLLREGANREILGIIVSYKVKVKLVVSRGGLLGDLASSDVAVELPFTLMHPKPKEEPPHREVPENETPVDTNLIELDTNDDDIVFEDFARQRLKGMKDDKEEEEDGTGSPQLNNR

No constants are given. Whether binding was seen depends on the method and setting. In cells and extracts the contact can be indirect. Some results given as binding are weak or reduced against the parent protein; the word gives no strength.

Test [1] deals with ADGRG2 (adhesion G-protein-coupled receptor G2) (mouse (endogenous in efferent ductules)) (UniProt Q8CJ12). As to the kind of experiment: co-IP; efferent ductules of WT mice (Adgrg2-/Y mice as control) and of Arrb2-/- mice; proteins cross-linked with 2.5 mM DSP, tissue lysed, anti-ADGRG2 antibody (AF7977) and Protein A/G PLUS-Agarose at 4°C, western blot.
Test [2] concerns the target Flag-ADGRG2 (ADGRG2 full-length, ADGRG2FL) (mouse) (UniProt Q8CJ12). As to the kind of experiment: co-IP; HEK293 cells transfected with equal amounts of plasmids encoding ADGRG2, CFTR, β-arrestin-1 or β-arrestin-2; Flag-ADGRG2 pulled down with M2-Flag beads, western blot.

On to Gq (from UniProt P21279 1-359), for which the binding result in test [1] was “binds”.

“β-arrestin-1 (overexpressed in HEK293 cells) (from UniProt P49407 1-418)”: the binding entry in test [2] is given as “binds”.
